Our source for the binding values is PMC2843739.

Sequences of proteins named here, by UniProt entry; tags and fusion partners are left off. Residues count along the entry.
UniProt P08113, residues 22-802: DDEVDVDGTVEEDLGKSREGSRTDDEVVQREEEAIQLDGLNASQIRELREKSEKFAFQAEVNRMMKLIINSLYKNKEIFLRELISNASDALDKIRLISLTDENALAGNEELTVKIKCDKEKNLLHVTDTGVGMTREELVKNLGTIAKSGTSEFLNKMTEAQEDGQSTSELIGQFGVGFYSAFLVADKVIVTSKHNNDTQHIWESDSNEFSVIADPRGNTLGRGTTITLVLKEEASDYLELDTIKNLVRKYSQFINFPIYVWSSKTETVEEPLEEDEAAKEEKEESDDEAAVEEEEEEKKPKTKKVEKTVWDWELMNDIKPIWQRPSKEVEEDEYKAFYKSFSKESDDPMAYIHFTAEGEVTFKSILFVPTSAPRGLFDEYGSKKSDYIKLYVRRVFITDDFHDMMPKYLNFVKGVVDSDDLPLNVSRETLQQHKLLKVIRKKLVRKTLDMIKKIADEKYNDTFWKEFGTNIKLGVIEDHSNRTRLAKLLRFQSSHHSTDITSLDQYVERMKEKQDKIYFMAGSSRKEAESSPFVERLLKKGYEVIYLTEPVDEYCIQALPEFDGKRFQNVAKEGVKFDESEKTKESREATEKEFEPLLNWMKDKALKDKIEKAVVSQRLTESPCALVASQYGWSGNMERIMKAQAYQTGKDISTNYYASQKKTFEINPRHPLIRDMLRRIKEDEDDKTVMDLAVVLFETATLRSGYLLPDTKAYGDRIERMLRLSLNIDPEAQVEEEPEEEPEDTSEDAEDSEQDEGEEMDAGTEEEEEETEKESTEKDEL

Assay [1] addresses gp96 (endogenous, RAW264.7 cells) (mouse (endogenous in RAW264.7)) (UniProt P08113). Briefly: co-IP; RAW264.7 cell lysates, cells with or without 10µM GPM1 for 24h; immunoprecipitated with control IgG or anti-gp96 antibody, immunoblotted with anti-KDELR1, anti-AIMP1 and gp96 antibodies. On the technique in general: Immunoblotting shows a protein as a band on a membrane.
For assay [2] the target is unchanged. Kind of assay: condition: only cells treated with 10µM GPM1 for 24h; co-IP; RAW264.7 cells treated with 10µM GPM1 for 24h; lysates immunoprecipitated with anti-gp96 antibody, immunoblotted with anti-AIMP1.

No constants are given. Whether binding was seen depends on the method and setting. Binding seen in cells or lysates may run through a third protein. Some binding calls cover weakened binding; strength is not graded here.

B1: KDEL receptor 1 (KDELR1) (receptor, UniProt Q99JH8 1-212)
chain: MNLFRFLGDLSHLLAIILLLLKIWKSRSCAGISGKSQVLFAVVFTARYLDLFTNYISLYNTCMKVVYIACSFTTVWMIYSKFKATYDGNHDTFRVEFLVVPTAILAFLVNHDFTPLEILWTFSIYLESVAILPQLFMVSKTGEAETITSHYLFALGVYRTLYLFNWIWRYHFEGFFDLIAIVAGLVQTVLYCDFFYLYITKVLKGKKLSLPA
For the molecule B1, the binding result in assay [1] is “binds”.

B2: AIMP1 (endogenous, RAW264.7 cells) (protein, UniProt P31230 1-310)
chain: MATNDAVLKRLEQKGAEADQIIEYLKQQVALLKEKAILQATMREEKKLRVENAKLKKEIEELKQELILAEIHNGVEQVRVRLSTPLQTNCTASESVVQSPSVATTASPATKEQIKAGEEKKVKEKTEKKGEKKEKQQSAAASTDSKPIDASRLDLRIGCIVTAKKHPDADSLYVEEVDVGEAAPRTVVSGLVNHVPLEQMQNRMVVLLCNLKPAKMRGVLSQAMVMCASSPEKVEILAPPNGSVPGDRITFDAFPGEPDKELNPKKKIWEQIQPDLHTNAECVATYKGAPFEVKGKGVCRAQTMANSGIK
Take B2: the binding entry is “binds” in assay [1] and “no binding” in assay [2].
